This note sets out measurements from US20230089867A1 (Novartis AG, priority 2018, published 2023).

This data set can be described thus: general procedure: hybrid (solid and solution phase) peptide synthesis; PS-2-Chlorotrityl chloride resin; HATU (TBTU, HCTU or HATU named); HATU/HOAt/2,6-lutidine for cyclisation. The conditions noted are these: for cyclisation yield: cyclisation step; for step yield: late stage modification step.

“(2S,5S,8S,13S,16R)-16-benzyl-8-(4-chlorobenzyl)-1-(4-ethyl-2-(4-(1-methyl-2-(pyrrolidin-1-ylmethyl)-1H-imidazol-5-yl)phenoxy)benzyl)-2-(2-fluoroethyl)-5-(methoxymethyl)-7,13,14-trimethyl-1,4,7,11,14-pentaazacyclooctadecane-3,6,10,15,18-pentaone” showed a cyclisation yield of 47%. The substance “(2S,5S,8S,13S,16R)-16-benzyl-1-(4-chloro-2-(4-(2-(1-hydroxyethyl)-1-methyl-1H-imidazol-5-yl)phenoxy)benzyl)-8-(4-chlorobenzyl)-5-(hydroxymethyl)-2,7,13,14-tetramethyl-1,4,7,11,14-pentaazacyclooctadecane-3,6,10,15,18-pentaone” returned a step yield of 55.7% yield. The substance “(2S,5S,8S,13S,16R)-16-allyl-1-(4-chloro-2-(4-(2-((dimethylamino)methyl)-1-methyl-1H-imidazol-5-yl)phenoxy)benzyl)-8-(4-chlorobenzyl)-5-(methoxymethyl)-2,7,13,14-tetramethyl-1,4,7,11,14-pentaaza cyclooctadecane-3,6,10,15,18-pentaone” showed a cyclisation yield of 26%. On the same count and under the same terms, the value for “(4S,7S,10S,14R)-14-benzyl-11-(4-chloro-2-(4-(2-((dimethylamino)methyl)-1-methyl-1H-imidazol-5-yl)phenoxy)benzyl)-4-(4-chlorobenzyl)-7-(methoxymethyl)-5,10,16-trimethyltetradecahydro-1H-pyrano[3,4-1][1,4,7,11,14]pentaazacyclooctadecine-2,6,9,12,15(3H)-pentaone” was 17%. Under “chloride hydrochloride”, “3-(4-(2-(((2S,5S,8S,13S,16R)-16-benzyl-8-(4-chlorobenzyl)-5-(methoxymethyl)-2,7,13,14-tetramethyl-3,6,10,15,18-pentaoxo-1,4,7,11,14-pentaazacyclooctadecan-1-yl)methyl)-5-chlorophenoxy)phenyl)-5,6-dihydro-8H-spiro[imidazo[1,2-a]pyrazine-7,1′-pyrrolidin]-7-ium chloride hydrochloride” displayed a step yield of 21.3% yield. Consider “Ethyl 4-((3-((4S,7S,10S,14R,16aS,20aS)-14-benzyl-11-(4-chloro-2-(4-(2-((dimethylamino) methyl)-1-methyl-1H-imidazol-5-yl)phenoxy)benzyl)-4-(4-chlorobenzyl)-7-(methoxymethyl)-5,16-dimethyl-2,6,9,12,15-pentaoxodocosahydrobenzo[l][1,4,7,11,14]pentaazacyclooctadecin-10-yl)propyl)amino) butanoate”, for which the step yield was determined as 27%.

Consider “(4S,7S,10S,14R,16aS,20aS)-14-benzyl-11-(4-chloro-2-(4-(2-((dimethylamino)methyl)-1-methyl-1H-imidazol-5-yl)phenoxy)benzyl)-4-(4-chlorobenzyl)-7-(methoxymethyl)-5,16-dimethyl-10-(3-(2-oxopyrrolidin-1-yl)propyl)hexadecahydrobenzo[l][1,4,7,11,14]pentaazacyclooctadecine-2,6,9,12,15 (3H)-pentaone”, for which the step yield is on record as 13.5%. Still for that read-out and setting: to “(4S,7S,10S,14R,16aS,20aS)-10-(2-aminoethyl)-14-benzyl-11-(4-chloro-2-(4-(2-((dimethylamino)methyl)-1-methyl-1H-imidazol-5-yl)phenoxy)-benzyl)-4-(4-chlorobenzyl)-7-(methoxymethyl)-5,16-dimethylhexadecahydro-benzo[l][1,4,7,11,14]pentaazacyclo-octadecine-2,6,9,12,15(3H)-pentaone [109]” belongs 95%; to “((4S,7S,10S,14R,16aS,20aS)-14-benzyl-11-(4-chloro-2-(4-(2-((dimethylamino)methyl)-1-methyl-1H-imidazol-5-yl)phenoxy)benzyl)-4-(4-chlorobenzyl)-5,10,16-trimethyl-2,6,9,12,15-pentaoxodocosahydrobenzo[l][1,4,7,11,14]pentaazacyclooctadecin-7-yl)methyl pivalate”, 56.7%. “(4S,7S,10S,16aS,20aS)-4-(4-chlorobenzyl)-11-(2-(difluoromethoxy)-6-(4-(2-((dimethylamino)methyl)-1-methyl-1H-imidazol-5-yl)phenoxy)benzyl)-7-(methoxymethyl)-5,10,16-trimethylhexadecahydro-benzo[l][1,4,7,11,14]pentaazacyclooctadecine-2,6,9,12,15(3H)-pentaone”: the cyclisation yield is 22%. For “(2S,5S,8S,13S,16R)-1-(4-chloro-2-(4-(2-((dimethylamino)methyl)-1-methyl-1H-imidazol-5-yl)phenoxy)benzyl)-8-(4-chlorobenzyl)-5-(ethoxymethyl)-2,7,13,14,16-pentamethyl-1,4,7,11,14-pentaaza cyclooctadecane-3,6,10,15,18-pentaone formate”, the cyclisation yield (formate salt) was 9%.

Substance “3-(2-(((2S,5S,8S,13S,16R)-16-Benzyl-8-(4-chlorobenzyl)-5-(methoxymethyl)-2,7,13,14-tetramethyl-3,6,10,15,18-pentaoxo-1,4,7,11,14-pentaazacyclooctadecan-1-yl)methyl)-5-chlorophenoxy)-N-(1-methylpiperidin-4-yl)benzamide” gave a step yield of 47.4% yield. Regarding “(4S,7S,10S,14R,16aS,20aS)-14-benzyl-11-(4-chloro-2-(4-(2-((dimethylamino)-methyl)-1-methyl-1H-imidazol-5-yl)phenoxy)benzyl)-4-(4-chlorobenzyl)-7-(methoxymethyl)-5,16-dimethyl-10-(2-morpholinoethyl)hexadecahydrobenzo-[l][1,4,7,11,14]pentaazacycloocta-decine-2,6,9,12,15(3H)-pentaone”, the step yield came out at 11%. The same measure, in the same setting: to “(2S,5S,8S,13S,16R)-5-((1H-tetrazol-5-yl)methyl)-16-benzyl-1-(4-chloro-2-(4-(2-((dimethylamino) methyl)-1-methyl-1H-imidazol-5-yl)phenoxy)benzyl)-8-(4-chlorobenzyl)-2,7,13,14-tetramethyl-1,4,7,11,14-pentaazacyclooctadecane-3,6,10,15,18-pentaone” belongs 2% yield.

Where the note is “formate”, “(2S,5S,8S,13S,16R)-16-Benzyl-1-(4-chloro-2-(4-(4-((dimethylamino)methyl)-5-methyl-1H-1,2,3-triazol-1-yl)phenoxy)benzyl)-8-(4-chlorobenzyl)-5-(methoxymethyl)-2,7,13,14-tetramethyl-1,4,7,11,14-pentaazacyclooctadecane-3,6,10,15,18-pentaone formate” displayed a step yield of 4%. As for “N-(4-((2S,5S,8S,13S,16R)-16-benzyl-1-(4-chloro-2-(4-(1-methyl-2-(pyrrolidin-1-ylmethyl)-1H-imidazol-5-yl)phenoxy)benzyl)-8-(4-chlorobenzyl)-5-(methoxymethyl)-2,7,14-trimethyl-3,6,10,15,18-pentaoxo-1,4,7,11,14-pentaazacyclooctadecan-13-yl)butyl)acetamide trifluoroacetate”, the step yield (trifluoroacetate) is reported as 72.8% yield. In turn, “(2S,5S,8S,13S,16R)-16-benzyl-1-(4-chloro-2-(4-(1-methyl-2-(pyrrolidin-1-ylmethyl)-1H-imidazol-5-yl)phenoxy)benzyl)-8-(4-chlorobenzyl)-13-(4-(dimethylamino)butyl)-5-(methoxymethyl)-2,7,14-trimethyl-1,4,7,11,14-pentaazacyclooctadecane-3,6,10,15,18-pentaone hydrochloride” registered a step yield (hydrochloride) of 64.7% yield.
